This is one part of the list. These are further read-outs of the screen, such as a control signal, another cell line or another target. No call is given for them. The list favours compounds with an active or inconclusive main result. The note in brackets gives the kind of curve behind each potency; many fits are weak.
Experiment: qHTS Assay to Find Inhibitors of Chronic Active B-Cell Receptor Signaling
Settings: ABC-DLBCL IkBa-CBG/CBR reporter, luminescence ratio (green luciferase fused to IkBa over red control in TMD8 lymphoma cells), 4 h
Summary of the method: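 Compounds up to 46 uM were incubated four hours with TMD8 cells whose green CBG68 luciferase is fused to IkappaBalpha; red CBR luminescence normalised the signal, and concentration-effect curves were fitted to fusion, red and ratio data.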

[1] = measured here: CBR red luminescence, cell number
[2] = measured here: IkBa-CBG green luminescence

CC(C)[C@H](NC(=O)OCc1ccccc1)C(=O)OCC(=O)Nc1c(F)cccc1F
AC50 [1]: 29.1 µM [rising, partial curve, poor fit]

CCN(CC)S(=O)(=O)c1ccc(Cl)c(NC(=O)COC(=O)c2ccc(O)cc2)c1
AC50 [1]: 4.47 µM [falling, partial curve, poor fit]

C=CCC[C@@H](Cc1ccc(F)cc1)C(=O)OC[C@H](Cc1c[nH]c2ccccc12)NC(=O)[C@H](CC=C)CC(=O)NCCO
AC50 [1]: 18.4 µM [falling, single point]

CSc1cccc(NC(=O)CSc2nc3ccccc3o2)c1
AC50 [1]: 35.5 µM [falling, single point]

COc1ccccc1-c1cc(C(F)(F)F)nc(S(=O)(=O)CCCC(=O)N2CCCCC2C)n1 (stereo not given)
AC50 [1]: 5.01 µM [falling, partial curve]

CC1S/C(=N/N=C/c2cccc([N+](=O)[O-])c2)NC1=O (stereo not given)
AC50 [1]: 17.8 µM [rising, single point]

O=C(NCCc1ccccc1)C1CCC(CNc2c(N3CCCCC3)c(=O)c2=O)CC1 (stereo not given)
AC50 [1]: 10.3 µM [rising, partial curve]

COc1ccc2nc(N(Cc3cccnc3)C(=O)CCc3ccccc3)sc2c1
AC50 [1]: 2 µM [rising, partial curve]

OC(CN1C2=NCCCN2c2ccccc21)c1ccc(Br)cc1 (stereo not given)
AC50 [1]: 13 µM [falling, partial curve, poor fit]

CSc1nc(N2CCN(C)CC2)c2c(c1C#N)CC(C)(C)OC2
AC50 [1]: 3.16 µM [rising, full curve, poor fit]

CCCCCc1ccc(OCCCC[n+]2ccc(C)cc2)c(CCCCC)c1
AC50 [1]: 5.62 µM [falling, partial curve, poor fit]

COc1cc2oc(-c3ccc(O)cc3)cc(=O)c2c(OC)c1O
AC50 [2]: 10 µM [falling, partial curve, poor fit]

Cc1oc(-c2ccc3c(c2)OCCO3)cc1C(=O)NCC(=O)O
AC50 [1]: 35.5 µM [falling, single point]

COc1cc(CNc2ccc3c(c2)CCC3)cc(OC)c1O
AC50 [1]: 23.1 µM [rising, single point]

O=C(O)c1ccc(-n2nc(-c3ccccc3)c3ccccc3c2=O)cc1
AC50 [1]: 20 µM [falling, single point]

CC(/C=N/N1CCN(c2ccccc2)CC1)=C\c1ccco1
AC50 [1]: 3.98 µM [rising, full curve]

CCOc1ccc(NC(=O)CN2CCCC2c2cccs2)cc1S(=O)(=O)N1CCCCC1 (stereo not given)
AC50 [1]: 5.8 µM [falling, single point]

COc1ccc(-c2c(C)nn3c(C)cc(C)nc23)cc1
AC50 [1]: 11.2 µM [falling, partial curve, poor fit]

CCN(CC)S(=O)(=O)c1ccc(C(=O)N2CCCCC2)cc1
AC50 [1]: 16.4 µM [rising, partial curve]

Cc1csc(NC(=O)CSc2nnc(-c3ccoc3C)n2C(C)c2ccccc2)n1 (stereo not given)
AC50 [1]: 15.8 µM [falling, single point]

CC(=C/C(=O)O)/C(=C\c1ccc(Br)o1)C(=O)O
AC50 [1]: 0.398 µM [rising, full curve, poor fit]

COCCn1c(C)cc(C(=O)CSc2ccc(NC(C)=O)cc2)c1C
AC50 [1]: 10 µM [rising, single point]

N#Cc1ccc(NC(=S)NC(=O)C2CCCCC2)cc1
AC50 [1]: 0.411 µM [rising, partial curve, poor fit]

COc1ccc(-n2c(CNC(=O)COc3ccc(Cl)cc3Cl)n[nH]c2=S)cc1
AC50 [1]: 22.4 µM [falling, single point]

O=C(CN1C(=O)NC2(CCc3ccccc32)C1=O)c1ccc(F)c(F)c1 (stereo not given)
AC50 [1]: 2.31 µM [falling, partial curve, poor fit]

CC(C)Nc1ccc(-n2nc3ccccc3[n+]2[O-])cc1
AC50 [1]: 10 µM [falling, partial curve]

Nc1c(SCCC(=O)O)ccc2c1C(=O)c1ccccc1C2=O
AC50 [1]: 0.282 µM [falling, full curve, poor fit]

O=C(CN1C(=O)C2CCCCC2C1=O)Nc1cc([N+](=O)[O-])ccc1F (stereo not given)
AC50 [1]: 0.0731 µM [rising, full curve, poor fit]

COc1ccc(C2c3ccc4ccccc4c3Oc3ncn(CCCN(C)C)c(=N)c32)cc1 (stereo not given)
AC50 [1]: 15.8 µM [falling, single point]

CC(=O)Nc1ccc(NC(=O)CSC2=NS(=O)(=O)c3cc(Cl)ccc3N2)cc1
AC50 [1]: 6.51 µM [falling, partial curve]

Cc1ccc(COc2ccsc2C(=O)NN)cc1
AC50 [1]: 14.1 µM [falling, single point]

CCCn1nc(NC(=O)C2CCCO2)c2cc3cccc(C)c3nc21 (stereo not given)
AC50 [1]: 0.501 µM [falling, full curve, poor fit]

COc1cccc(NC(=O)c2ccc3c(O)c(S(=O)(=O)c4ccccc4)c(=O)[nH]c3c2)c1
AC50 [1]: 35.5 µM [falling, partial curve, poor fit]

Cn1c(SCC(=O)c2ccc(O)c(O)c2)nnc1-c1ccccc1
AC50 [1]: 10 µM [falling, partial curve]

N#CCSc1nccc(/C=C/c2ccccc2)n1
AC50 [1]: 2 µM [rising, partial curve, poor fit]

COc1ccccc1C(=O)N(Cc1ccccc1)c1ccc(C)cc1
AC50 [1]: 35.5 µM [falling, single point]

NC(=O)C1CCN(C(=O)C(=O)c2cn(CC(=O)N3CCCCCC3)c3ccccc23)CC1
AC50 [1]: 2.51 µM [falling, partial curve, poor fit]

Cn1nccc1C(=O)N1CCc2c([nH]c3ccccc23)C1c1ccc(F)cc1 (stereo not given)
AC50 [1]: 22.4 µM [falling, single point]

COc1ccc(N2CCN(C(C)C(=O)Nc3nnc(C)s3)CC2)cc1 (stereo not given)
AC50 [1]: 0.0891 µM [rising, full curve, poor fit]

Clc1ccc(CO/N=C2\CCCc3nonc32)cc1
AC50 [1]: 11.6 µM [rising, partial curve]

O=C(O)c1ccc(C(=O)c2ccc3c(c2)C(=O)N(CCO)C3=O)cc1
AC50 [1]: 6.31 µM [falling, partial curve, poor fit] | AC50 [2]: 3.55 µM [rising, single point]

CS(=O)(=O)NCCNc1ccc(Cl)cc1[N+](=O)[O-]
AC50 [1]: 14.1 µM [rising, partial curve, poor fit]

CC(=O)Nc1ccc(C(=O)COC(=O)C2CC2C)c(F)c1 (stereo not given)
AC50 [1]: 16.4 µM [rising, partial curve]

CCOC(=O)c1c(S(=O)(=O)Nc2cccc(Cl)c2)c(C)n(C)c1C
AC50 [1]: 31.6 µM [rising, single point]

CC(=C/c1ccccc1)/C=N/n1c(-c2ccco2)n[nH]c1=S
AC50 [1]: 10 µM [falling, partial curve]

CCCN1C2CCCC1CC(NC(=S)Nc1ccc(OC)cc1)C2 (stereo not given)
AC50 [1]: 14.1 µM [rising, single point]

Cc1nc(N/N=C/c2ccc(Br)cc2)cc(N2CCOCC2)n1
AC50 [1]: 12.6 µM [rising, partial curve, poor fit]

COc1ccc2nc3c(cc2c1)c(NC(=O)c1cccs1)nn3CC(C)C
AC50 [1]: 8.91 µM [falling, partial curve, poor fit]

NC(=O)c1ccc(NC(=O)CN2CCN(S(=O)(=O)c3ccc4c(c3)OCCO4)CC2)cc1
AC50 [1]: 29.1 µM [rising, single point]

CCOC(=O)[C@@H]1[C@H]2COc3cc(OC)ccc3[C@H]2N2C(=O)N(c3cccc(F)c3)C(=O)[C@@]12C
AC50 [1]: 11.6 µM [rising, partial curve, poor fit]

Cc1ccccc1OCC(=O)Nc1cnn(CCCC(=O)O)c1
AC50 [1]: 5.62 µM [rising, full curve] | AC50 [2]: 10 µM [falling, partial curve, poor fit]

CSc1ccccc1OCc1cc(C(=O)NC(C)c2cnn(C)c2)no1 (stereo not given)
AC50 [1]: 25.1 µM [falling, single point]

COc1ccc(-c2sc3cc4c(cc3c2C#CC2(N)CCCCC2)OCO4)cc1
AC50 [1]: 23.1 µM [rising, single point]

COc1cc([N+](=O)[O-])cc(/C=N/NC(=O)C(C)Nc2cccc3ccccc23)c1O (stereo not given)
AC50 [1]: 18.4 µM [falling, single point] | AC50 [2]: 18.4 µM [rising, partial curve, poor fit]

Cc1nc(N2CCOCC2)c2oc3ccccc3c2n1
AC50 [1]: 3.98 µM [falling, full curve, poor fit]

CCCC(C)NC(=O)c1ccc(OCc2ccc(Cl)cc2)c(OC)c1 (stereo not given)
AC50 [1]: 18.4 µM [rising, partial curve, poor fit]

COc1cccc(NS(=O)(=O)c2ccc3[nH]cc(C(=O)NCCCOC(C)C)c(=O)c3c2)c1
AC50 [1]: 2.51 µM [rising, partial curve, poor fit]

c1ccc(N/N=C(\Cc2nc3ccccc3[nH]2)c2ccccc2)cc1
AC50 [1]: 4.61 µM [rising, partial curve, poor fit]

COc1ccc(S(N)(=O)=O)cc1C(=O)OCC1CCCCC1
AC50 [1]: 11.2 µM [rising, partial curve, poor fit]

NC(=O)c1cc(Cl)cn(-c2ccccc2)c1=O
AC50 [1]: 18.4 µM [rising, single point]

O=C1N(Cc2cccc(Cl)c2)C[C@@H]2C[C@@H](c3cccc4cccnc34)N3CCC[C@@]123
AC50 [1]: 1.12 µM [falling, partial curve, poor fit]

Cc1nc(C(=O)NC2CC2)sc1C1(C)CC(c2cccc([N+](=O)[O-])c2)=NO1 (stereo not given)
AC50 [1]: 3.16 µM [rising, full curve, poor fit]

Reference: PubChem BioAssay AID493014 (National Center for Advancing Translational Sciences (NCATS), 2011)
